No constants are given. Whether binding was seen depends on the method and setting. In cells and extracts the contact can be indirect. Some results given as binding are weak or reduced against the parent protein; the word gives no strength.

Amino acid sequences for entries named in this document (tags omitted).
UniProt P04198: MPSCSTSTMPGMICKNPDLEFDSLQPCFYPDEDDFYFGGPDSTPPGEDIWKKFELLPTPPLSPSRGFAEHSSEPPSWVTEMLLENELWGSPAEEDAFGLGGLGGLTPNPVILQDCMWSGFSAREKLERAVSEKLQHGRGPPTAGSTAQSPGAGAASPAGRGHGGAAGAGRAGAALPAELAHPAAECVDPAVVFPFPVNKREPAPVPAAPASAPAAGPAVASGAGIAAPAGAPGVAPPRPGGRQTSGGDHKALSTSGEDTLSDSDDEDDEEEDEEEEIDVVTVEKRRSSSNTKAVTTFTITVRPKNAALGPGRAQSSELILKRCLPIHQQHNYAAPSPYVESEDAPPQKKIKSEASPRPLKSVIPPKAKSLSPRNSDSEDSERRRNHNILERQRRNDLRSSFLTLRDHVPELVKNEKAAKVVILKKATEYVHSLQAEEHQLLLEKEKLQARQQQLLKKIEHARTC
UniProt P31274: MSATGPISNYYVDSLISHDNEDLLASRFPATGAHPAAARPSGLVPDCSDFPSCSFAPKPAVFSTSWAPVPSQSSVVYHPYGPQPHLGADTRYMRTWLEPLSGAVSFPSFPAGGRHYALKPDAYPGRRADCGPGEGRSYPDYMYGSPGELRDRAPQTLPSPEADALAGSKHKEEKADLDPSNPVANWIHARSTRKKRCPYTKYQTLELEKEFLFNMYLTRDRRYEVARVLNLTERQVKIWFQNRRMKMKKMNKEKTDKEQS
UniProt Q86U44: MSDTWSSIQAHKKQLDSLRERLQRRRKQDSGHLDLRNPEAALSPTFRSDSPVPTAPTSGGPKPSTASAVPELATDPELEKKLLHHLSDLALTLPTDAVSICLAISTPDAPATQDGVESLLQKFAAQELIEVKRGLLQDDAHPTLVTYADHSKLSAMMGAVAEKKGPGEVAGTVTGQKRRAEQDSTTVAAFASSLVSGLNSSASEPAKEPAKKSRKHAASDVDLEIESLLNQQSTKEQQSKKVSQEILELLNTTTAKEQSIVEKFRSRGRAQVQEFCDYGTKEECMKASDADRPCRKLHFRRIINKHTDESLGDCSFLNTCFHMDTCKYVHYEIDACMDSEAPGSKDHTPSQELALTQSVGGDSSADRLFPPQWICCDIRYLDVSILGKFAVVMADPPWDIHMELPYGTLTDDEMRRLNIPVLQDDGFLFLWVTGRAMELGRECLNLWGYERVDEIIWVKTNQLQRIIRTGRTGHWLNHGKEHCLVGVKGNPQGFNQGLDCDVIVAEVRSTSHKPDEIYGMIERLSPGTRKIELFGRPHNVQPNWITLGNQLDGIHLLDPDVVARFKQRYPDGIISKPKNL
UniProt P31273: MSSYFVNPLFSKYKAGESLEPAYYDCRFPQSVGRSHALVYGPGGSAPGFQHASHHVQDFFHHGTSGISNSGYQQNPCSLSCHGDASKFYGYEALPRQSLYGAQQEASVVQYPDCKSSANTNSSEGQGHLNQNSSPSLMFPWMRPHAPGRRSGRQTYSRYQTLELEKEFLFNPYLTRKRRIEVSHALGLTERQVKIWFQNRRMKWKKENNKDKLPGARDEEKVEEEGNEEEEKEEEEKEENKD

Test [1] deals with MYCN in trunk neural crest cells (tNCC) (human (endogenous in tNCC from hESC H9)) (UniProt P04198). Kind of test: proximity ligation; Duolink PLA in tNCC fixed in 4% PFA, METTL3 and MYCN antibodies; negative control with only the METTL3 antibody.
The target in test [2] is FLAG-tagged MYCN (Flag-MYCN), Dox-induced in SHEP cells (SHEP^MYCN) (UniProt P04198). The test can be described thus: proximity ligation; Duolink PLA in SHEP^MYCN cells after 24 h Dox induction, fixed in 4% PFA, METTL3 and MYCN antibodies; negative control with only the METTL3 antibody.
The target is the same in test [3]. Kind of test: co-IP; lysates of SHEP^MYCN cells after Dox induction for 24 h; IP with MYCN or METTL3 antibody, blotted with METTL3 or MYCN antibodies; IgG as negative control; also after 1 h treatment with 300 nM flavopiridol (interaction not altered).
In test [4] the target is HOXC9 (human) (UniProt P31274). Kind of test: proximity ligation; PLA in MNA NB cells, HOXC8 and HOXC9 antibodies (Appendix Fig. S5F).

Regarding “METTL3 (from UniProt Q86U44 1-580) (enzyme)”, the binding result in test [1], in test [2] and in test [3] was “binds” in each case.
Consider HOXC8 (from UniProt P31273 1-242), for which the binding entry in test [4] is “binds”.

These data come from publication PMC11649786.
